Data on five molecules can be found in patent US20220363754A1.

The target of assay [1] is Cyno TIGIT-Fc (cynomolgus monkey). In words: SPR (Biacore T200). A general note: Surface plasmon resonance follows binding to a sensor surface in real time, without labels.
Assay [2] deals with T1, hTIGIT-Fc (human) (UniProt Q495A1).
T1 sequence (looked up): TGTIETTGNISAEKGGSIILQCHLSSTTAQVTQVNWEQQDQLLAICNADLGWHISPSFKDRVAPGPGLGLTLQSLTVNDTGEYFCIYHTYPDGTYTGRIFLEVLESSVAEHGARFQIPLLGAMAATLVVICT
Put plainly: SPR (Biacore T200).

The target of assay [3] is T2, recombinant protein hTIGIT-ECD-mFC (human; mouse) (UniProt Q495A1).
T2 sequence (looked up): T1 sequence (looked up)
In words: ELISA, human TIGIT-ECD-mFc coated at 0.5 ug/mL.

Residue numbers refer to the chain shown, from its start. These are yes or no findings as the source states them, for the method shown. Some entries that bind do so weakly or less than the wild type. For some assays here: Tags and fused reporters may be left off the sequences shown.

B1: humanized antibody hu3 (antibody, human IgG4 S228P, kappa, V domains shown)
VH: QVQLVQSGAEVKKPGASVKVSCKTSGYAFTEYTMHWVRQAPGQGLEWMGGINPNTGGTTYNQKFQGRVTLTVDKSSSTAYMELSRLRSDDTVVYYCAKLLRLMYYFDYWGQGTLVTVSS
VL: DIVMTQSPDSLAVSLGERATINCKASQDVRTAVAWYQQKPGQPPKLLIYSASYRYTGVPDRFSGSGSGTDFTLTISSLQAEDVAVYYCHQHYITPWTFGGGTKVEIKR
Consider B1, for which the binding entry in assay [1], in assay [2] and in assay [3] was “binds” in each case.

B2: humanized antibody hu20 (antibody, human IgG4 S228P, kappa, V domains shown)
VH: B1 VH with Q43K, R85S, D89E
VL: DIQMTQSPSSLSASVGDRVTITCQASQDVRTAVAWYQQKPGKAPKLLIYSASYRYTGVPSRFSGSGSGTDFTFTISSLQPEDIATYYCHQHYITPWTFGGGTKVEIKR
On to B2, for which the binding entry in assay [1] and in assay [2] was “binds” in each case.

B3: humanized antibody hu69 (antibody, V domains shown)
VH: QVQLVQSGAEVKKPGASVKVSCKASGYTFTNYWILWIRQAPGQGLEWMGDIYPGGHYTNYNEKFQGRVTLTADTSSSTAYMELSRLRSDDTAVYYCTRYYGPYAMDYWGQGTLVTVSS
VL: DIVMTQSPLSLPVTPGEPASISCRSSQSLLYNSNQKNYLAWYLQKPGQSPQLLIYWASTGESGVPDRFSGSGSGTDFTLKISRVEAEDVGVYYCQQYYSYPFTFGQGTKLEIK
For B3, in assay [3], the binding entry is recorded as “binds”.

B4: humanized antibody hu62 (antibody, V domains shown)
VH: B3 VH with R85S, D89E
VL: DIQMTQSPSSLSASVGDRVTITCRSSQSLLYNSNQKNYLAWYQQKPGKAPKLLIYWASTGESGVPSRFSGSGSGTDFTLTISSLQPEDFATYYCQQYYSYPFTFGQGTKVEIK
Regarding B4, in assay [3], the binding result is “binds”.

B5: humanized antibody hu81 (antibody, V domains shown)
VH: B3 VH with F64L, S84R, R85S
VL: B3 VL with L110V
Take B5: in assay [3], the binding result is “binds”.
